PubChem BioAssay AID652243, Drosophila RNAi Screening Center – 2013
The screen tested about 24,000 reagents; this is an unselected part of those with a known target gene and a result. In the full data, 246 (1%) were called active. 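Plates not normalised; calls are printed but the firefly/Renilla ratio behind them is not deposited; fold cut for lowering reported inconsistently.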 Raw values vary from plate to plate and are shown uncorrected. Reagents against one gene are numbered here. Not stated in the record: the amount of reagent.

- Test: 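Fly genes required for human androgen receptor driven transcription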 (primary screen)
- Cells: Drosophila S2R+ cells
- Reagents: long dsRNA against Drosophila genes
- Duration: 72 h (48 h, then 24 h hormone)
- Treatment: synthetic androgen R1881 at 10 nM for 24 h
- Read-out: 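Firefly light from an androgen-responsive reporter and Renilla control light per well, raw and unnormalised, for each of two replicates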
- Scale: firefly reporter light: higher = more light from androgen-responsive reporter; Renilla control light: higher = more constitutive control signal (cell number, transfection)
- Hit rule: 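Across duplicate plates, a knock-down whose log firefly/Renilla ratio shifted a set fold down or up from the GFP/LacZ control mean was a hit; the downward cut appears as both 1.5 and 3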
- Meaning of the calls: active = hit: reporter lowered or raised; inactive = no hit

Against CG15046 the deposit lists firefly reporter light, replicate 1 = 7.17e5; firefly reporter light, replicate 2 = 9.07e5; Renilla control light, replicate 1 = 3.43e6; Renilla control light, replicate 2 = 3.32e6; inactive.
Cubn (Cubilin) #1 scored firefly reporter light, replicate 1 = 68022; firefly reporter light, replicate 2 = 99439; Renilla control light, replicate 1 = 7.66e5; Renilla control light, replicate 2 = 7.65e5; inactive.
Against Cubn (Cubilin) #2, the values are firefly reporter light, replicate 1 = 4.66e5; firefly reporter light, replicate 2 = 5.24e5; Renilla control light, replicate 1 = 9.04e5; Renilla control light, replicate 2 = 9.04e5; inactive.
With knock-down of CG34417 #1 the results were firefly reporter light, replicate 1 = 3.76e5; firefly reporter light, replicate 2 = 4.79e5; Renilla control light, replicate 1 = 3.96e6; Renilla control light, replicate 2 = 3.94e6; inactive.
Silencing of CG34417 #2 resulted in: firefly reporter light, replicate 1 = 1.14e5; firefly reporter light, replicate 2 = 1.32e5; Renilla control light, replicate 1 = 9.18e5; Renilla control light, replicate 2 = 6.66e5; inactive.
CG34417 #3 scored firefly reporter light, replicate 1 = 6.70e5; firefly reporter light, replicate 2 = 8.25e5; Renilla control light, replicate 1 = 7.21e5; Renilla control light, replicate 2 = 1.06e6; inactive.
Depletion of CG42811 resulted in: firefly reporter light, replicate 1 = 2.32e5; firefly reporter light, replicate 2 = 1.77e5; Renilla control light, replicate 1 = 2.77e6; Renilla control light, replicate 2 = 2.74e6; inactive.
After knock-down of CG7407, the record shows firefly reporter light, replicate 1 = 34570; firefly reporter light, replicate 2 = 67820; Renilla control light, replicate 1 = 4.12e5; Renilla control light, replicate 2 = 4.22e5; inactive.
CG33339 #1 scored firefly reporter light, replicate 1 = 6.12e5; firefly reporter light, replicate 2 = 1.04e6; Renilla control light, replicate 1 = 1.14e6; Renilla control light, replicate 2 = 1.91e6; inactive.
For CG33339 #2, the entry reads firefly reporter light, replicate 1 = 4.09e5; firefly reporter light, replicate 2 = 4.85e5; Renilla control light, replicate 1 = 1.09e6; Renilla control light, replicate 2 = 1.09e6; inactive.
Silencing of CG16756 came out at: firefly reporter light, replicate 1 = 2.69e5; firefly reporter light, replicate 2 = 2.28e5; Renilla control light, replicate 1 = 1.71e6; Renilla control light, replicate 2 = 1.82e6; inactive.

In a second layout: entries from further up.
| target | dsRNA no. | firefly reporter light, replicate 1 | firefly reporter light, replicate 2 | Renilla control light, replicate 1 | Renilla control light, replicate 2 | activity call |
| --- | --- | --- | --- | --- | --- | --- |
| CG34417 | 1 | 3.76e5 | 4.79e5 | 3.96e6 | 3.94e6 | inactive |
| CG34417 | 2 | 1.14e5 | 1.32e5 | 9.18e5 | 6.66e5 | inactive |

The listing continues:
Depletion of Fpgs2 (Folylpolyglutamate synthase 2) gave: firefly reporter light, replicate 1 = 97907; firefly reporter light, replicate 2 = 82504; Renilla control light, replicate 1 = 5.88e5; Renilla control light, replicate 2 = 9.02e5; inactive.
MYPT-75D (Myosin phosphatase targeting subunit 75D) scored firefly reporter light, replicate 1 = 44174; firefly reporter light, replicate 2 = 50752; Renilla control light, replicate 1 = 4.93e5; Renilla control light, replicate 2 = 3.31e5; inactive.
CG18417 #1 gave firefly reporter light, replicate 1 = 1.61e5; firefly reporter light, replicate 2 = 1.62e5; Renilla control light, replicate 1 = 2.15e6; Renilla control light, replicate 2 = 2.03e6; inactive.
For CG18417 #2, the values are firefly reporter light, replicate 1 = 7.70e5; firefly reporter light, replicate 2 = 6.65e5; Renilla control light, replicate 1 = 8.01e5; Renilla control light, replicate 2 = 6.56e5; inactive.
Silencing of CG5024 resulted in: firefly reporter light, replicate 1 = 91685; firefly reporter light, replicate 2 = 1.63e5; Renilla control light, replicate 1 = 2.02e6; Renilla control light, replicate 2 = 1.93e6; inactive.
For CtsL2 (Cathepsin L2), the values are firefly reporter light, replicate 1 = 9.95e5; firefly reporter light, replicate 2 = 7.69e5; Renilla control light, replicate 1 = 2.64e6; Renilla control light, replicate 2 = 2.00e6; inactive.
After knock-down of Mal-B1 (Maltase B1) #1 the results were firefly reporter light, replicate 1 = 4.05e5; firefly reporter light, replicate 2 = 2.73e5; Renilla control light, replicate 1 = 1.38e6; Renilla control light, replicate 2 = 1.87e6; inactive.
Against Mal-B1 (Maltase B1) #2, the values are firefly reporter light, replicate 1 = 6.65e5; firefly reporter light, replicate 2 = 5.28e5; Renilla control light, replicate 1 = 1.01e6; Renilla control light, replicate 2 = 7.89e5; inactive.
After knock-down of CG5885 #1 the results were firefly reporter light, replicate 1 = 6.72e5; firefly reporter light, replicate 2 = 8.28e5; Renilla control light, replicate 1 = 1.62e6; Renilla control light, replicate 2 = 2.25e6; inactive.
Knock-down of CG5885 #2 resulted in: firefly reporter light, replicate 1 = 9.23e5; firefly reporter light, replicate 2 = 7.87e5; Renilla control light, replicate 1 = 1.43e6; Renilla control light, replicate 2 = 1.82e6; inactive.
